Data source: PubChem BioAssay AID1259254 (NCATS, 2017)
The deposit covers about 59,000 reagents; shown is a part drawn at random. Of all reagents, about 1,550 (2.6%) got an active call. 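G2 share is only a proxy for re-replication; each gene was hit by three separate siRNAs, and active genes were retested.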 Raw values are not corrected between plates. A number with no mark means an inactive call. Reagents against one gene are numbered here. Not stated in the record: the amount of reagent.

Aim: 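Finding genes that stop cells copying their DNA twice in one cycle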 (primary screen)
Cell system: human HCT116 colorectal cancer cells
Reagents: single siRNA against human genes
Timing: 3 days
Measurement: 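Nuclei stained with Hoechst and imaged; cell-cycle phase assigned by DNA content; G2 share scaled per plate, non-targeting siRNA 0%, GMNN siRNA 100%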
Direction: G2 robust z-score and G2 cells, % of GMNN control: higher = more G2 cells, more excess DNA replication; raw share of cells in G2: higher = larger share of cells with G2 DNA content
Active means: 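Active siRNAs have a G2 robust z of 5 or more median absolute deviations over the median, which in these data means about 38% or higher of GMNN control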

| Target gene | reagent | G2 robust z-score | G2 cells, % of GMNN control | raw share of cells in G2 (%) |
| --- | --- | --- | --- | --- |
| IRX2-DT (IRX2 divergent transcript) | 1 | 0.146 | 4 | 4.03 |
| IRX2-DT (IRX2 divergent transcript) | 2 | -0.0817 | 2.39 | 4.46 |
| IRX2-DT (IRX2 divergent transcript) | 3 | -0.837 | -2.92 | 1.98 |
| PIANP (PILR alpha associated neural protein) | 1 | 1 | 10 | 5.93 |
| PIANP (PILR alpha associated neural protein) | 2 | 3.31 | 26.3 | 13 |
| PIANP (PILR alpha associated neural protein) | 3 | 0.916 | 9.41 | 6.11 |
| PCDHA10 (protocadherin alpha 10) | 1 | 2.36 | 19.6 | 12.5 |
| PCDHA10 (protocadherin alpha 10) | 2 | -0.872 | -3.17 | 5.04 |
| PCDHA10 (protocadherin alpha 10) | 3 | 1.52 | 13.7 | 9.33 |
| CYLD (CYLD lysine 63 deubiquitinase) | 1 | 5.79 (active) | 43.7 | 25.8 |
| CYLD (CYLD lysine 63 deubiquitinase) | 2 | -0.532 | -0.778 | 3.8 |
| CYLD (CYLD lysine 63 deubiquitinase) | 3 | 0.131 | 3.89 | 5.05 |
| SHISA4 (shisa family member 4) | 1 | 0.39 | 5.71 | 5.74 |
| SHISA4 (shisa family member 4) | 2 | 1.21 | 11.5 | 6.46 |
| SHISA4 (shisa family member 4) | 3 | 1.16 | 11.2 | 6.96 |

3 entries from above, sorted by “G2 cells, % of GMNN control”, high to low:
| Target gene | reagent | G2 robust z-score | G2 cells, % of GMNN control | raw share of cells in G2 (%) |
| --- | --- | --- | --- | --- |
| PIANP (PILR alpha associated neural protein) | 2 | 3.31 | 26.3 | 13 |
| PIANP (PILR alpha associated neural protein) | 1 | 1 | 10 | 5.93 |
| PIANP (PILR alpha associated neural protein) | 3 | 0.916 | 9.41 | 6.11 |

More records follow:
| Target gene | reagent | G2 robust z-score | G2 cells, % of GMNN control | raw share of cells in G2 (%) |
| --- | --- | --- | --- | --- |
| FCRLB (Fc receptor like B) | 1 | 1.42 | 12.9 | 11.7 |
| FCRLB (Fc receptor like B) | 2 | -0.805 | -2.7 | 3.81 |
| FCRLB (Fc receptor like B) | 3 | -0.631 | -1.47 | 3.92 |
| SLN (sarcolipin) | 1 | -0.316 | 0.743 | 5.29 |
| SLN (sarcolipin) | 2 | -0.335 | 0.612 | 4.46 |
| SLN (sarcolipin) | 3 | 5.16 (active) | 39.2 | 17.5 |
| BRAF (B-Raf proto-oncogene, serine/threonine kinase) | 1 | -0.778 | -2.51 | 4.78 |
| BRAF (B-Raf proto-oncogene, serine/threonine kinase) | 2 | 0.324 | 5.25 | 7.18 |
| BRAF (B-Raf proto-oncogene, serine/threonine kinase) | 3 | -0.728 | -2.15 | 3.27 |
| LINC00886 (long independently transcribed non-coding RNA 886) | 1 | 2.26 | 18.9 | 11.5 |
| LINC00886 (long independently transcribed non-coding RNA 886) | 2 | -0.0943 | 2.3 | 4 |
| LINC00886 (long independently transcribed non-coding RNA 886) | 3 | 0.4 | 5.78 | 5.28 |
| KCTD13 (potassium channel tetramerization domain containing 13) | 1 | -1.35 | -6.54 | 2.84 |
| KCTD13 (potassium channel tetramerization domain containing 13) | 2 | 2.55 | 20.9 | 12.3 |
| KCTD13 (potassium channel tetramerization domain containing 13) | 3 | 3.6 | 28.3 | 16.6 |
